# Measured values as given in PubChem BioAssay AID504444 (National Center for Advancing Translational Sciences (NCATS), 2011).
# The campaign covered roughly 360,000 compounds. About 7,500 (2.1%) were called active. This list was built around the results that the source calls inconclusive (neither active nor inactive); the mix of calls is not that of the screen. Calls come from the whole dose curve; as a rule, active = well fitted inhibition curve with a large enough effect; inconclusive = small, poorly fitted or top-dose-only effect, or effect the other way; inactive = flat fitted curve, though single readings scatter. Potencies beside an inconclusive call are fits to weak or partial responses and may not hold up.
# Assay: Nrf2 qHTS screen for inhibitors; note: nearly all actives have a fitted effect of over 60% in size
# Details: A549 ARE-Fluc reporter, luciferase luminescence, 18-24 h; activity change, negative = inhibition: at 46 µM (top of the series)
# Outline: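 A549 ARE_Fluc cells, 5000/well, 5% FBS OPTI-MEM; compounds in dose-response, 18-24 h at 37 °C/5% CO2; CellTiter-Fluor viability read (Ex 405/Em 525), then BugLite luciferase luminescence = Nrf2 activity.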
# % is set by controls: 0 for no effect and ±100 for the full control effect; potency is the fitted concentration of half-maximal effect.
SMILES,Potency,"activity change, negative = inhibition"
N#Cc1nc(-c2ccc(COc3ccccc3)o2)oc1NCc1cccnc1,"inconclusive: 29.1 µM [falling, single point]",
Cc1cc(C(=O)CSc2nnc(N)s2)c(C)n1CCc1ccc(Cl)cc1,"inconclusive: 10.3 µM [falling, partial curve, poor fit]",
Cc1ccc(-c2cc(C(=O)OCC(=O)Nc3ncc(C(F)(F)F)cc3Cl)c3ccccc3n2)cc1,"inconclusive: 14.6 µM [activator, single point]",
CC(C)NC(=O)C1CCC(Cn2c(=O)c3sccc3n(CC(=O)N3CCCC3)c2=O)CC1 (configuration not stated),"inconclusive: 8.2 µM [activator, partial curve]",
N#Cc1c(-c2ccc(Cl)cc2)no[n+]1[O-],,inactive: -7.59%
Cc1occc1C(=O)N/N=C/c1ccc(-c2ccccc2)cc1,"inconclusive: 8.2 µM [activator, partial curve]",
Cn1c(=O)c(C(=O)NNC(=O)c2ccccc2F)c(O)c2ccccc21,"inconclusive: 32.6 µM [falling, single point]",
O=C(OCc1cc(=O)n2ccsc2n1)c1ccc(O)cc1O,,inactive: 16.8%
COc1cccc(-c2cc3nc(-c4ccccc4)cc(N4CCC5(CC4)OCCO5)n3n2)c1,"inconclusive: 16.4 µM [falling, single point]",
O=C(c1ccoc1)N1CCC2(CC1)Oc1ccc(F)cc1C(=O)C21CC(c2ccc(Cl)cc2)=NO1 (configuration not stated),,inactive: -7.34%
CC(C)(C)OC(=O)N1CCCC(C(=O)Nc2ccc(C(=O)N3CCCCC3)cc2)C1 (configuration not stated),"inconclusive: 29.1 µM [falling, single point]",
O=C(NC(=S)Nn1cnnc1)c1cccc(Br)c1,"inconclusive: 29.1 µM [activator, single point]",
C[C@H](CO)N1C[C@H](C)[C@@H](CN(C)S(=O)(=O)c2ccc(F)cc2)Oc2ccc(NS(=O)(=O)c3cccs3)cc2C1=O,,inactive: 0.0637%
Cc1cccc(Cn2cc(/C=C(/C#N)C(=O)Nc3cccc(Cl)c3)c3ccccc32)c1,"inconclusive: 8.2 µM [falling, partial curve]",
O=C(Nc1ccncc1)c1ccc(N2CCCC2=O)cc1,"inconclusive: 14.6 µM [falling, single point]",
O=C(/C=C/Nc1ccc(Br)cc1F)c1ccco1,"inconclusive: 0.731 µM [activator, full curve, poor fit]",
COC(=O)c1ccc(NC(=O)Cn2nc(C)c3ccccc3c2=O)cc1,"inconclusive: 18.4 µM [falling, single point]",
O=C(Nc1nc2ccccc2c(=O)s1)c1ccco1,"inconclusive: 0.411 µM [falling, full curve, poor fit]",
CCOC(=O)c1[nH]c2ccc(Cl)cc2c1NC(=O)/C=C/c1ccc2c(c1)OCO2,active: 5.17 µM,
Cc1ccc(NC(=S)Nc2ccc(F)cc2)c(C)c1,"inconclusive: 6.51 µM [falling, single point]",
NC1=NC(=O)/C(=C\c2cccnc2)S1,"inconclusive: 20.6 µM [falling, partial curve, poor fit]",
Cc1cc(C)cc(NC(=O)c2cc(C)nc3c2c(C)nn3-c2ccccc2)c1,"inconclusive: 16.4 µM [falling, partial curve, poor fit]",
O=C(NCCC(=O)N1CCN(c2cccc(Cl)c2)CC1)c1ccc(Br)cc1,"inconclusive: 29.1 µM [falling, single point]",

SMILES,Potency,"activity change, negative = inhibition"
O=C(O)c1cccc(Cn2c(Cl)c(/C=N/NC(=O)c3cccc(O)c3)sc2=O)c1,,inactive: 4.32%
Cc1cc(C)c2c(CN3CCCCC3)cc(=O)oc2c1,,inactive: 11.3%
CCOc1ccc(C2CC(=O)NC(NC(=O)c3ccc(C)cc3)=N2)cc1 (configuration not stated),"inconclusive: 20.6 µM [falling, single point]",
COc1ccc(NC(=O)Cn2c(=O)n(CCC(C)C)c(=O)c3cccnc32)cc1Cl,,inactive: 5.86%
COc1ccc(CCn2c3c(c(=O)[nH]c2=S)CN(C(C)C)CN3)cc1OC,"inconclusive: 29.1 µM [falling, single point]",
Cc1ccc(OCC(=O)N(Cc2ccc(Cl)cc2)Cc2ccco2)cc1C,"inconclusive: 32.6 µM [falling, single point]",
O=C1NC2(C=Cc3c(ccc4ccccc34)O2)Oc2ccccc21 (configuration not stated),"inconclusive: 32.6 µM [falling, single point]",
CCn1c2ccccc2c2cc(NC(=O)c3cc(OC)cc(OC)c3)ccc21,"inconclusive: 2.59 µM [activator, full curve, poor fit]",
Cc1c(C(=O)N2CCCCC2)c(S(=O)(=O)NCCc2ccc(S(N)(=O)=O)cc2)c(C)n1C,"inconclusive: 29.1 µM [activator, single point]",
CCN(CC)c1nc2c(S(=O)(=O)c3ccccc3)nnn2c2ccc(Cl)cc12,"inconclusive: 8.2 µM [falling, partial curve]",
CCOc1ccccc1CNC(=O)c1nc(-c2ccc(Cl)cc2)n2c1CCCCC2,active: 23.1 µM,
COc1ccccc1N1CCN(C(=O)c2sc3nc(-c4ccccc4)cn3c2C)CC1,"inconclusive: 29.1 µM [falling, single point]",
CCOc1ccc(CCNC(=O)c2c(C)oc3ncn(CC(C)C)c(=O)c23)cc1,,inactive: 5.26%
COC(=O)C1=C(Nc2ccc(OC)cc2)C=C(C)C(C(=O)OC)C1c1ccc(C)cc1 (configuration not stated),"inconclusive: 8.2 µM [falling, partial curve]",
O=C(CSc1nc(=O)n(CCN2CCOCC2)c2c1CCC2)Nc1ccc(OC(F)(F)F)cc1,active: 18.4 µM,
Cc1cccc(CS(=O)(=O)Cc2ccc(C(=O)NCc3ccccc3)o2)c1,,inactive: -18.3%
Clc1ccccc1CNc1ncnc2c1nc1n2CCCC1,"inconclusive: 1.64 µM [activator, partial curve, poor fit]",
COc1ccc(S(=O)(=O)Nc2cccc(S(=O)(=O)N3CCCCCC3)c2)cc1,"inconclusive: 6.51 µM [activator, partial curve, poor fit]",
COc1cccc(OCc2cc(C(=O)N3CCN(c4ccccc4O)CC3)no2)c1,"inconclusive: 11.6 µM [activator, partial curve]",
O=c1c2ccccc2nc(CSc2nnnn2-c2ccccc2)n1-c1ccccc1Cl,"inconclusive: 16.4 µM [falling, single point]",
CC(=O)NS(=O)(=O)c1ccc(N=c2ssc3c2-c2cc(C)ccc2NC3(C)C)cc1,,inactive: 4.19%
COc1ccccc1-c1cccc([C@@H]2C[C@H]3[C@H](CON3C)CN2Cc2ccccc2)c1,"inconclusive: 20.6 µM [falling, single point]",
O=C(/C=C/c1cccs1)c1ccc(NC(=O)c2cccc(Br)c2)cc1,"inconclusive: 25.9 µM [falling, partial curve, poor fit]",

SMILES,Potency,"activity change, negative = inhibition"
O=C(c1ccco1)N1CCN(CCCCOc2ccc(F)cc2)CC1,,inactive: -5.45%
Cc1ccc2nc(NC(=O)C3CC(=O)N(Cc4ccco4)C3)sc2c1 (configuration not stated),"inconclusive: 9.2 µM [activator, partial curve]",
Nc1nc2n(n1)C(c1ccco1)CC(c1ccccc1)N2 (configuration not stated),"inconclusive: 5.17 µM [falling, partial curve]",
COc1ccc(NC(=O)Nc2ccc3c(c2)N(C)C(=O)CS3)cc1Cl,"inconclusive: 29.1 µM [falling, single point]",
CCN1CCN(c2cc(C)c3cc(NC(=S)N(C)Cc4ccccc4)ccc3n2)CC1,,inactive: 3.5%
CC(Sc1nnnn1-c1ccccc1)C(=O)Nc1ccc(Cl)cn1 (configuration not stated),"inconclusive: 32.6 µM [falling, single point]",
COc1cccc(N2C(=O)C(CC(=O)Nc3ccccc3)N(CCc3sccc3C)C2=O)c1 (configuration not stated),,inactive: -8.31%
Cc1ccc(C(NC(=O)N2CCCC2)C(Cl)(Cl)Cl)cc1F (configuration not stated),"inconclusive: 20.6 µM [falling, partial curve, poor fit]",
COc1ccc(CCC(=O)NCC23CC4CC(CC(C4)C2)C3)cc1,"inconclusive: 18.4 µM [falling, single point]",
C=CCOc1ccc(/C=C/C(=O)OCC(=O)N2CCCc3ccccc32)cc1,,inactive: 1.82%
Cc1cc(C(=O)OCC(=O)N2c3ccccc3NC(=O)C2(C)C)c(C)n1-c1ccccc1,"inconclusive: 14.6 µM [falling, partial curve]",
COCc1c(C(=O)N2CCN(S(=O)(=O)c3ccccc3Cl)CC2)oc2ccccc12,"inconclusive: 32.6 µM [falling, single point]",
CC(C)c1ccc(NC(=S)N(C)CCc2ccccn2)cc1,"inconclusive: 29.1 µM [activator, single point]",
Cc1ccc(SCC(=O)Nc2ccccc2C(=O)O)cc1,"inconclusive: 20.6 µM [activator, partial curve]",
c1ccc(-c2nnc(-c3ccco3)n2-c2ccccc2)cc1,,inactive: -16.8%
CCn1cc(CN2CCC(n3nccc3NC(=O)C3CCCC3)CC2)cn1,,inactive: -2.74%
CCCNC(=O)c1noc2c1CCc1ccccc1-2,"inconclusive: 13 µM [activator, partial curve]",
COc1ccccc1NC(=O)CN1CCCCCC1,,inactive: 3.35%
CCc1ccccc1NC(=O)CN1C(=O)C2CCCN2c2ccc(S(=O)(=O)N(CC)CC)cc21 (configuration not stated),"inconclusive: 29.1 µM [activator, single point]",
COc1ccc(N(Cc2cc(=O)[nH]c3ccccc23)C(=O)c2ccco2)cc1,"inconclusive: 2.06 µM [falling, partial curve, poor fit]",
O=C(COc1ccc(S(=O)(=O)N2CCCC2)cc1)N1CCN(c2ccccc2F)CC1,"inconclusive: 11.6 µM [falling, partial curve, poor fit]",

# In another format: results already given.
SMILES	Potency	activity change, negative = inhibition
Cc1ccc(-c2cc(C(=O)OCC(=O)Nc3ncc(C(F)(F)F)cc3Cl)c3ccccc3n2)cc1	inconclusive: 14.6 µM [activator, single point]	
N#Cc1c(-c2ccc(Cl)cc2)no[n+]1[O-]		inactive: -7.59%
Cc1cccc(Cn2cc(/C=C(/C#N)C(=O)Nc3cccc(Cl)c3)c3ccccc32)c1	inconclusive: 8.2 µM [falling, partial curve]	
Cc1ccc(NC(=S)Nc2ccc(F)cc2)c(C)c1	inconclusive: 6.51 µM [falling, single point]	
NC1=NC(=O)/C(=C\c2cccnc2)S1	inconclusive: 20.6 µM [falling, partial curve, poor fit]	
Cc1cc(C)cc(NC(=O)c2cc(C)nc3c2c(C)nn3-c2ccccc2)c1	inconclusive: 16.4 µM [falling, partial curve, poor fit]	
O=C(NCCC(=O)N1CCN(c2cccc(Cl)c2)CC1)c1ccc(Br)cc1	inconclusive: 29.1 µM [falling, single point]	
COc1ccc(NC(=O)Cn2c(=O)n(CCC(C)C)c(=O)c3cccnc32)cc1Cl		inactive: 5.86%
COc1ccccc1N1CCN(C(=O)c2sc3nc(-c4ccccc4)cn3c2C)CC1	inconclusive: 29.1 µM [falling, single point]	
CCOc1ccc(CCNC(=O)c2c(C)oc3ncn(CC(C)C)c(=O)c23)cc1		inactive: 5.26%
COC(=O)C1=C(Nc2ccc(OC)cc2)C=C(C)C(C(=O)OC)C1c1ccc(C)cc1 (configuration not stated)	inconclusive: 8.2 µM [falling, partial curve]	
Cc1cccc(CS(=O)(=O)Cc2ccc(C(=O)NCc3ccccc3)o2)c1		inactive: -18.3%
COc1ccc(S(=O)(=O)Nc2cccc(S(=O)(=O)N3CCCCCC3)c2)cc1	inconclusive: 6.51 µM [activator, partial curve, poor fit]	
O=C(/C=C/c1cccs1)c1ccc(NC(=O)c2cccc(Br)c2)cc1	inconclusive: 25.9 µM [falling, partial curve, poor fit]	
CC(Sc1nnnn1-c1ccccc1)C(=O)Nc1ccc(Cl)cn1 (configuration not stated)	inconclusive: 32.6 µM [falling, single point]	
CC(C)c1ccc(NC(=S)N(C)CCc2ccccn2)cc1	inconclusive: 29.1 µM [activator, single point]	
Cc1ccc(SCC(=O)Nc2ccccc2C(=O)O)cc1	inconclusive: 20.6 µM [activator, partial curve]	
CCn1cc(CN2CCC(n3nccc3NC(=O)C3CCCC3)CC2)cn1		inactive: -2.74%
CCc1ccccc1NC(=O)CN1C(=O)C2CCCN2c2ccc(S(=O)(=O)N(CC)CC)cc21 (configuration not stated)	inconclusive: 29.1 µM [activator, single point]	
O=C(COc1ccc(S(=O)(=O)N2CCCC2)cc1)N1CCN(c2ccccc2F)CC1	inconclusive: 11.6 µM [falling, partial curve, poor fit]	
